± gives the standard deviation of the averaged measurements. This is a selection; strong and weak results do not stand in their true shares. Most entries show no effect beyond the scatter of the controls.
Compound: Nc1ncnc2c1ncn2[C@@H]1O[C@H](COP(=O)(O)OP(=O)(O)OP(=O)(O)O)[C@@H](O)[C@H]1O [adenosine triphosphate]
Assay: NP40-soluble protein abundance relative to vehicle (solubility fold change) (ratio); higher = more soluble protein in presence of ATP
Summary of the method: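 Jurkat crude lysate prepared with a Dounce homogeniser was treated at eight concentrations spanning 0.1 to 10 mM, 10 min at room temperature then 3 min at 37 °C. Solubilisation with 0.8% NP40 and benzonase and ultracentrifugation preceded TMT labelling of the supernatant for LC-MS/MS. Fold change against the detergent-processed vehicle was determined per replicate from vsn-normalised intensities, across three independent experiments.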

Sequences of proteins named here, by UniProt entry; tags and fusion partners are left off. A change or cut given only in a name is not applied to a line headed by its entry.
UniProt Q4J6C6, whole entry: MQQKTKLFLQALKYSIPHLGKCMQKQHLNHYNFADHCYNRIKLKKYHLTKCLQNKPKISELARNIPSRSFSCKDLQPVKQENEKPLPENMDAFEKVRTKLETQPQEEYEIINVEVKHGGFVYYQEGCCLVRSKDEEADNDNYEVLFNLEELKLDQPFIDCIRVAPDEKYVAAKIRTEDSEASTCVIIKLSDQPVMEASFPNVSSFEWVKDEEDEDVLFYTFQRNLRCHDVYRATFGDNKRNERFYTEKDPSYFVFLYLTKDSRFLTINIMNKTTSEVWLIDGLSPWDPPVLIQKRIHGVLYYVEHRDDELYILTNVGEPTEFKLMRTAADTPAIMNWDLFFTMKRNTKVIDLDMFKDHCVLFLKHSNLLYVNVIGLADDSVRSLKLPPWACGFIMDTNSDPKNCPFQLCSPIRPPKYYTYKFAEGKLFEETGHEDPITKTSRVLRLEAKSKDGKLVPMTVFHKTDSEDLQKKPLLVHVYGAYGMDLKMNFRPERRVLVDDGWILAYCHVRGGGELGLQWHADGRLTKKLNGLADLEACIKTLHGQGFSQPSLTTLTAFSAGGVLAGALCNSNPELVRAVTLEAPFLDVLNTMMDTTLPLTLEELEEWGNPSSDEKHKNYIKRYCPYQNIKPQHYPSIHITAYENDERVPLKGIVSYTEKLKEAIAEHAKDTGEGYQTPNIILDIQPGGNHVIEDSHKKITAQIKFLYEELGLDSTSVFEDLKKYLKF
UniProt Q16611: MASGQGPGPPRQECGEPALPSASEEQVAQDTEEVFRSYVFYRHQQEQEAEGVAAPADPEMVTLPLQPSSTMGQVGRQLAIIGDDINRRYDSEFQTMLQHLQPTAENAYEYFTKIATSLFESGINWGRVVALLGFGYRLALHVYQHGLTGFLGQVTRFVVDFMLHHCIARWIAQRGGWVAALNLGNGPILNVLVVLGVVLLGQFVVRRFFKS
UniProt Q15008: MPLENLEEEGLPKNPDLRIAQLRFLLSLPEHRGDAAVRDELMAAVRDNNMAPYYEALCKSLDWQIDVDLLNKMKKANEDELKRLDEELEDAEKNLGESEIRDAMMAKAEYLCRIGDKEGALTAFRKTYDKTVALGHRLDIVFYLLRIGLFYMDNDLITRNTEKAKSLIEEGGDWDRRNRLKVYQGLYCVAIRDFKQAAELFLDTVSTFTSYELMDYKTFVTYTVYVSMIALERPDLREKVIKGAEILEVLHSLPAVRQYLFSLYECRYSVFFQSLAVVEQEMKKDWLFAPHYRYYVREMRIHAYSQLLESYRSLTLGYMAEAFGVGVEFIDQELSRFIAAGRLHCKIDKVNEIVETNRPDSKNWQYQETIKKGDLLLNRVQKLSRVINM
UniProt Q4FZB7: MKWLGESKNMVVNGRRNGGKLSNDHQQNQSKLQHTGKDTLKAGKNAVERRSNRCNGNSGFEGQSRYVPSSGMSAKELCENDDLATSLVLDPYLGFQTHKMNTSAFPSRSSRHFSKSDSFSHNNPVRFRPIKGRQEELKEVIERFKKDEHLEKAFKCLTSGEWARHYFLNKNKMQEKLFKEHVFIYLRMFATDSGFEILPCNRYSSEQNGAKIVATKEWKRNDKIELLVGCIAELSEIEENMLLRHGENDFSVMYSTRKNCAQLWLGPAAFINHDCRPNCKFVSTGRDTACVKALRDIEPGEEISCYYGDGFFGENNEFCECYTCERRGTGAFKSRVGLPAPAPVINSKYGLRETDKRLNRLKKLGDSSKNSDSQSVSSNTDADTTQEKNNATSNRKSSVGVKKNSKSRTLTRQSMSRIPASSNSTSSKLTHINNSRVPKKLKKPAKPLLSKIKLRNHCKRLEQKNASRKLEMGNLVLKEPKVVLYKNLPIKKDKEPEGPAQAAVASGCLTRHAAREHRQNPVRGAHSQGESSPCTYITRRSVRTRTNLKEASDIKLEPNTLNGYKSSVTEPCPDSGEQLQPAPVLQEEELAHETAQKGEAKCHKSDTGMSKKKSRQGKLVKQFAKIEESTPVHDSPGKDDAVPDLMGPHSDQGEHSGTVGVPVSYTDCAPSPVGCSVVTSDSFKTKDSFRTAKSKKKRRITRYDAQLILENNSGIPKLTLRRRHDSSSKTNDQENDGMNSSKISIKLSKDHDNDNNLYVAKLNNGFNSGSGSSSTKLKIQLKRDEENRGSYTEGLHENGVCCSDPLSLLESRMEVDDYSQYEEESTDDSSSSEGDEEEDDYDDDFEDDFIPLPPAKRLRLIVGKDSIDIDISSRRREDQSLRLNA
UniProt Q14690: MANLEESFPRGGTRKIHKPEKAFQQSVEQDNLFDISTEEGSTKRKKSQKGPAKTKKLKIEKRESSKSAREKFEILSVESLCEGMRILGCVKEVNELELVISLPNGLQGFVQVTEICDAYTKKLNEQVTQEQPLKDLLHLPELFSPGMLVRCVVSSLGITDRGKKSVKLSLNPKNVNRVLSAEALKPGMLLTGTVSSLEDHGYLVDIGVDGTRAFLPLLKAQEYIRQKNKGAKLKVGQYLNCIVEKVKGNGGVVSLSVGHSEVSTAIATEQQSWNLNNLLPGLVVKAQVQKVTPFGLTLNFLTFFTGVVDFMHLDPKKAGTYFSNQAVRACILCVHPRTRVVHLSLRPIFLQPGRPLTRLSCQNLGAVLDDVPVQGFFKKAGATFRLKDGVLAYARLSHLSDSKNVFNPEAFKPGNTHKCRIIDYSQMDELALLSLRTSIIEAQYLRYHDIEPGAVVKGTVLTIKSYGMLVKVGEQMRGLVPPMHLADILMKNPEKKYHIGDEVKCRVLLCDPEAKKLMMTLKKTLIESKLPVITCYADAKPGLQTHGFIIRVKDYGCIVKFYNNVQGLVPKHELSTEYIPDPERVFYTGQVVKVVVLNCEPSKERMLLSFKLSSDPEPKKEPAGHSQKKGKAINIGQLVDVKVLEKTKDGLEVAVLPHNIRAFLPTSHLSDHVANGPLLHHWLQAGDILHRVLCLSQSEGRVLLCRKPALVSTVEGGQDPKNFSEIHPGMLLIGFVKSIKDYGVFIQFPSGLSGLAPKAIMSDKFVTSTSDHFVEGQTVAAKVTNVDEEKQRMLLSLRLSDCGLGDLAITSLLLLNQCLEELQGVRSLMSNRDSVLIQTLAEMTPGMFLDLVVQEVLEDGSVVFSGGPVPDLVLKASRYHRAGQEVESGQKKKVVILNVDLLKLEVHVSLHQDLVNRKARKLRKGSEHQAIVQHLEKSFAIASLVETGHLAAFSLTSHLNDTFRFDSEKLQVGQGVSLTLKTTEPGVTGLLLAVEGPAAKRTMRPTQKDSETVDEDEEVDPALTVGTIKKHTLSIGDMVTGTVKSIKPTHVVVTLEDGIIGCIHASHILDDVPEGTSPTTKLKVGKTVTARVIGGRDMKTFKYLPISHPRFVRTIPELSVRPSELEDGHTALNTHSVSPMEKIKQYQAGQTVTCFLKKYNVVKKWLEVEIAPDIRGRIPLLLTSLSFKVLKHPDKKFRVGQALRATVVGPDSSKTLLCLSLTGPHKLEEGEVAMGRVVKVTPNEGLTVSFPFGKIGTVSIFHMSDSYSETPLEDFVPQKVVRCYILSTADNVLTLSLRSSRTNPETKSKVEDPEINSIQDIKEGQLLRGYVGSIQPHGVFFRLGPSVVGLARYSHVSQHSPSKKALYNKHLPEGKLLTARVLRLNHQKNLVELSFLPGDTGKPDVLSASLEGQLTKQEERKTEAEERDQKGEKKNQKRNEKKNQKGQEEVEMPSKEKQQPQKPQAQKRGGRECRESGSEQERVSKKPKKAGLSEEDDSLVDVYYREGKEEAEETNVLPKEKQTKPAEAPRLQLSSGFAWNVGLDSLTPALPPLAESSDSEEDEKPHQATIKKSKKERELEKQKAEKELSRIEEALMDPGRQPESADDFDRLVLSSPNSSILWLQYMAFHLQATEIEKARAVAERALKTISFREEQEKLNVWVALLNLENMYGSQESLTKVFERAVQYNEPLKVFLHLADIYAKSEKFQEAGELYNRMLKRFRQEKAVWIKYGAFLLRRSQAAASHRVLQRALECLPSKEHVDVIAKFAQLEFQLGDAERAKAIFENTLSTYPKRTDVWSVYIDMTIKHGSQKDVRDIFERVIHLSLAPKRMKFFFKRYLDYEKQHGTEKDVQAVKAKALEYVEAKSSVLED
UniProt Q3MII6: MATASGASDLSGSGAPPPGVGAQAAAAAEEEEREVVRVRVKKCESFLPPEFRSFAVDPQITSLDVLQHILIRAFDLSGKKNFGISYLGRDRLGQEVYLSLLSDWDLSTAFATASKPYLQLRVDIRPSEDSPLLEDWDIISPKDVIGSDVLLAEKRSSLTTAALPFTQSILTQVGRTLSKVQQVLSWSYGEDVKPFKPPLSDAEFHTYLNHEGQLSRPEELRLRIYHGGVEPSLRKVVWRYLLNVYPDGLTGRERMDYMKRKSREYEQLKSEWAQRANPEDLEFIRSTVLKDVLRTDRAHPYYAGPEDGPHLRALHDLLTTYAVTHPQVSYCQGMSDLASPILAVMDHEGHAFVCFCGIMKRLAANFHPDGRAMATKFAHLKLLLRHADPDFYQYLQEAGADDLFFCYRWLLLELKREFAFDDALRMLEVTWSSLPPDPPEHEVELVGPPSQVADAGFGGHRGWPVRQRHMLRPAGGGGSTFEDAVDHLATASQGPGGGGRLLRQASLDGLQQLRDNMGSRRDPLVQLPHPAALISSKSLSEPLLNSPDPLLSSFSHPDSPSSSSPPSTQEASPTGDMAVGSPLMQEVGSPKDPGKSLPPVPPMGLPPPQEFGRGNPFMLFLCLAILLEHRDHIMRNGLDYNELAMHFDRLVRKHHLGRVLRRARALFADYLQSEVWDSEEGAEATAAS
UniProt Q15036: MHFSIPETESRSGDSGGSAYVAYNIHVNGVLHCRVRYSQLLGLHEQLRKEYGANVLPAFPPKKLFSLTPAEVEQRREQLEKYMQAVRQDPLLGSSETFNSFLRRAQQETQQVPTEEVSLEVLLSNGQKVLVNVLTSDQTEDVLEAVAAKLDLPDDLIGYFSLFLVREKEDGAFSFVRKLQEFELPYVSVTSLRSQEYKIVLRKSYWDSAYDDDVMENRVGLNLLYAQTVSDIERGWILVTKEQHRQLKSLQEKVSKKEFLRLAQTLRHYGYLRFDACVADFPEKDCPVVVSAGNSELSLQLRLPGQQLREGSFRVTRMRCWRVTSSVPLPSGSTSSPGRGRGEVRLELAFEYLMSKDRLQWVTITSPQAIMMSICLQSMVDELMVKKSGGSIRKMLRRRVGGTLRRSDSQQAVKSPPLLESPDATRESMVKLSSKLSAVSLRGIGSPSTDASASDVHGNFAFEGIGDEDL
UniProt Q32P28: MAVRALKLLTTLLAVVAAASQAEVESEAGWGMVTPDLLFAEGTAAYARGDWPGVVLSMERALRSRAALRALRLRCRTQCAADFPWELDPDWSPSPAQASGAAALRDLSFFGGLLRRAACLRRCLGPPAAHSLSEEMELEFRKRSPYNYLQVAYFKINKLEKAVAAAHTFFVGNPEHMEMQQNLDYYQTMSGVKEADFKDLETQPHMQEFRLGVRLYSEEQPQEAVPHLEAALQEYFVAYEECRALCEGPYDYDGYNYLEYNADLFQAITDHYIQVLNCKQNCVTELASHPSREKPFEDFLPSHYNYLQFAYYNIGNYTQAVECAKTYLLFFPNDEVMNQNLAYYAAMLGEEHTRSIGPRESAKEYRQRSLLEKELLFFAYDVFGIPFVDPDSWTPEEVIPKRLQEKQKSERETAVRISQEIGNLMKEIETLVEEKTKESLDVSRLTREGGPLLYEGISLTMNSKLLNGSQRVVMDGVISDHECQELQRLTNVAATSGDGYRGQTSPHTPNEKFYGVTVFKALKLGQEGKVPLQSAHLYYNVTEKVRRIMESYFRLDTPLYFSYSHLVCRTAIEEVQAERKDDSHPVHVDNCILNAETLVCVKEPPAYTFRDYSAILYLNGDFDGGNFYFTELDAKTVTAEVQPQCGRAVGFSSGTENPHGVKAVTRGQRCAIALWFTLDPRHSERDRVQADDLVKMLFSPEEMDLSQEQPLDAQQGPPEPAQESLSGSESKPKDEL

Target: UniProt Q4J6C6 and related entries
- NP40-soluble protein abundance (concentration: 0.1mM): 1.06 ± 0.08
- NP40-soluble protein abundance (concentration: 0.5mM): 1.06 ± 0.04

Target: UniProt Q16611 and related entries
- NP40-soluble protein abundance (concentration: 0.1mM): 0.951 ± 0.034
- NP40-soluble protein abundance (concentration: 0.5mM): 0.91 ± 0.1
- NP40-soluble protein abundance (concentration: 1mM): 1.01 ± 0.036
- NP40-soluble protein abundance (concentration: 2mM): 0.985 ± 0.023
- NP40-soluble protein abundance (concentration: 4mM): 1.02 ± 0.09
- NP40-soluble protein abundance (concentration: 6mM): 1.05 ± 0.045
- NP40-soluble protein abundance (concentration: 8mM): 0.997 ± 0.077
- NP40-soluble protein abundance (concentration: 10mM): 0.993 ± 0.087

Target: PSMD6 (UniProt Q15008)
- NP40-soluble protein abundance (concentration: 0.1mM): 0.991 ± 0.0067
- NP40-soluble protein abundance (concentration: 0.5mM): 0.971 ± 0.025
- NP40-soluble protein abundance (concentration: 1mM): 0.959 ± 0.015
- NP40-soluble protein abundance (concentration: 2mM): 0.9 ± 0.021
- NP40-soluble protein abundance (concentration: 4mM): 0.893 ± 0.022
- NP40-soluble protein abundance (concentration: 6mM): 0.889 ± 0.048
- NP40-soluble protein abundance (concentration: 8mM): 0.921 ± 0.032
- NP40-soluble protein abundance (concentration: 10mM): 0.886 ± 0.025

Target: UniProt Q4FZB7
- NP40-soluble protein abundance (concentration: 0.1mM): 0.968 ± 0.17
- NP40-soluble protein abundance (concentration: 0.5mM): 1.01 ± 0.14
- NP40-soluble protein abundance (concentration: 1mM): 0.985 ± 0.15
- NP40-soluble protein abundance (concentration: 2mM): 1.1 ± 0.23
- NP40-soluble protein abundance (concentration: 4mM): 1.07 ± 0.11
- NP40-soluble protein abundance (concentration: 6mM): 1.01 ± 0.16
- NP40-soluble protein abundance (concentration: 8mM): 1.01 ± 0.029
- NP40-soluble protein abundance (concentration: 10mM): 0.983 ± 0.065

Target: PDCD11 (UniProt Q14690)
- NP40-soluble protein abundance (concentration: 0.1mM): 1.01 ± 0.032
- NP40-soluble protein abundance (concentration: 0.5mM): 1.06 ± 0.039
- NP40-soluble protein abundance (concentration: 1mM): 1.09 ± 0.092
- NP40-soluble protein abundance (concentration: 2mM): 1.14 ± 0.056
- NP40-soluble protein abundance (concentration: 4mM): 1.29 ± 0.062
- NP40-soluble protein abundance (concentration: 6mM): 1.5 ± 0.13
- NP40-soluble protein abundance (concentration: 8mM): 1.75 ± 0.073
- NP40-soluble protein abundance (concentration: 10mM): 2.06 ± 0.15

Target: UniProt Q14155-1
- NP40-soluble protein abundance (concentration: 0.1mM): 1.02 ± 0.011
- NP40-soluble protein abundance (concentration: 0.5mM): 1.03 ± 0.065
- NP40-soluble protein abundance (concentration: 1mM): 1 ± 0.011
- NP40-soluble protein abundance (concentration: 2mM): 0.9849 ± 0.0056
- NP40-soluble protein abundance (concentration: 4mM): 0.97 ± 0.013
- NP40-soluble protein abundance (concentration: 6mM): 1.02 ± 0.05
- NP40-soluble protein abundance (concentration: 8mM): 0.976 ± 0.024
- NP40-soluble protein abundance (concentration: 10mM): 0.962 ± 0.034

Target: URB2 (UniProt Q14146)
- NP40-soluble protein abundance (concentration: 0.1mM): 1.07 ± 0.025
- NP40-soluble protein abundance (concentration: 0.5mM): 1.07 ± 0.061
- NP40-soluble protein abundance (concentration: 1mM): 1.21 ± 0.1
- NP40-soluble protein abundance (concentration: 2mM): 1.36 ± 0.15
- NP40-soluble protein abundance (concentration: 4mM): 1.61 ± 0.058
- NP40-soluble protein abundance (concentration: 6mM): 1.68 ± 0.11
- NP40-soluble protein abundance (concentration: 8mM): 2.04 ± 0.16
- NP40-soluble protein abundance (concentration: 10mM): 2.19 ± 0.46

Target: TBC1D25 (UniProt Q3MII6)
- NP40-soluble protein abundance (concentration: 0.1mM): 1.02 ± 0.051
- NP40-soluble protein abundance (concentration: 0.5mM): 0.89 ± 0.099
- NP40-soluble protein abundance (concentration: 1mM): 0.982 ± 0.059
- NP40-soluble protein abundance (concentration: 2mM): 1.04 ± 0.11
- NP40-soluble protein abundance (concentration: 4mM): 1.05 ± 0.16
- NP40-soluble protein abundance (concentration: 6mM): 0.962 ± 0.095
- NP40-soluble protein abundance (concentration: 8mM): 1.01 ± 0.14
- NP40-soluble protein abundance (concentration: 10mM): 1 ± 0.15

Target: UniProt Q15036 and related entries
- NP40-soluble protein abundance (concentration: 0.1mM): 1.08 ± 0.096
- NP40-soluble protein abundance (concentration: 0.5mM): 0.911 ± 0.12
- NP40-soluble protein abundance (concentration: 1mM): 0.88 ± 0.17
- NP40-soluble protein abundance (concentration: 2mM): 0.835 ± 0.14
- NP40-soluble protein abundance (concentration: 4mM): 0.853 ± 0.15
- NP40-soluble protein abundance (concentration: 6mM): 0.808 ± 0.18
- NP40-soluble protein abundance (concentration: 8mM): 0.808 ± 0.12
- NP40-soluble protein abundance (concentration: 10mM): 0.849 ± 0.16

Target: UniProt Q32P28 and related entries
- NP40-soluble protein abundance (concentration: 0.1mM): 1.03 ± 0.047
- NP40-soluble protein abundance (concentration: 0.5mM): 1.07 ± 0.062
- NP40-soluble protein abundance (concentration: 1mM): 1.13 ± 0.023
- NP40-soluble protein abundance (concentration: 2mM): 1.15 ± 0.025
- NP40-soluble protein abundance (concentration: 4mM): 1.2 ± 0.077
- NP40-soluble protein abundance (concentration: 6mM): 1.19 ± 0.043
- NP40-soluble protein abundance (concentration: 8mM): 1.22 ± 0.051
- NP40-soluble protein abundance (concentration: 10mM): 1.198 ± 0.0094

From the supplement of paper PMC6411743
